Source: PubChem BioAssay AID485318 (Broad Institute, 2010)
In all, about 1,400 compounds went through this assay and fewer than 10 were called active.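 The calls were made as follows: active = fluorescence-lowering compounds whose fitted half-maximal concentration is at or below ten times the highest valid dose tested; inconclusive = flat curve at 30 to 70% inhibition, or poor fit; inactive = the rest.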 Some of the results follow.

Chains of the proteins cited; added tags and fusions are not shown. Lines headed by an entry give the natural chain unless they say otherwise; changes in a name come on top.
UniProt O15379: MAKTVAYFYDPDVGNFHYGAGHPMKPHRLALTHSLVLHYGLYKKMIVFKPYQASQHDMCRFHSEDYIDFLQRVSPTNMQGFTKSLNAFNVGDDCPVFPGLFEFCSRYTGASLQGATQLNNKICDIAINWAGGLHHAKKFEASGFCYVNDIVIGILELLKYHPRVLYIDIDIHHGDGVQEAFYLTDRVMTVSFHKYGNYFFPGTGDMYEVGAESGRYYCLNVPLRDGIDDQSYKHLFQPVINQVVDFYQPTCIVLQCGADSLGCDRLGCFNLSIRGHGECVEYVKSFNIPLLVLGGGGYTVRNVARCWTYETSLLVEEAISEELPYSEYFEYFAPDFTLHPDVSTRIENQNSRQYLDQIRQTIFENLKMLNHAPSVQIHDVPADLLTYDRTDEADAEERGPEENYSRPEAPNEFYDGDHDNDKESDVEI

Each molecule was assayed against Histone deacetylase 3 (Homo sapiens) (UniProt O15379) (assay: HDAC3 deacetylase inhibitors, dose response, counter-screen for JMJD2C/GASC1 demethylase inhibitor project, biochemical, fluorescence, cherry-picked samples (AID 485318;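 also: enzyme preincubated with compound before substrate and trypsin were added; 0% = neutral control wells and -100% = SAHA positive control wells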)). Conditions: recombinant HDAC3, fluorogenic peptide/trypsin coupled; at 12 µM (top of the series).
With Cc1ccc(CNC(=O)[C@@H](NC(=O)Cc2ccccc2)C(C)C)cc1 the activity change, negative = inhibition was inactive: 0.874%. With Cn1nc(N)nc1N1CCN(c2ccc(F)cc2)CC1 the activity change, negative = inhibition was inactive: 0.182%. Cc1noc(C)c1NC(=O)N(C)C[C@H]1Oc2ccc(NS(=O)(=O)c3ccccc3)cc2C(=O)N([C@H](C)CO)C[C@@H]1C was tested, and the activity change, negative = inhibition was inactive: 0.22%. With CCc1ncc(C)[nH]1 the activity change, negative = inhibition was inactive: 0.761%. COC(=O)c1ccc(-c2sc3nc(N4CCOCC4)c4c(c3c2N)CC(C)(C)OC4)o1 was tested, and the activity change, negative = inhibition was inactive: -0.609%. For Cc1ccc(NC(=O)CSc2ncc(S(=O)(=O)c3ccccc3)c(=O)[nH]2)cc1C, the activity change, negative = inhibition was inactive: -0.644%. With COc1ccc(Br)cc1CN(C)CC(=O)NCc1ccc(F)cc1 the activity change, negative = inhibition was inactive: 0.309%. For COc1ccc(C(CNC(=O)c2oc3cc(Br)ccc3c2C)N2CCCCC2)cc1 (stereo not given), the activity change, negative = inhibition was inactive: 0.153%. With O=C(CSc1ncccn1)Nc1ccc(S(=O)(=O)N2CCCCC2)cc1 the activity change, negative = inhibition was inactive: -0.114%. With CC(=O)Nc1cc2c(cc1NC(=O)Cn1nc(-c3ccccc3)ccc1=O)OCCO2 the activity change, negative = inhibition was inactive: -0.351%. CCCCN(C)C(=O)CCC(=O)NNc1nc2ccccc2c2nc(C)nn12 was tested, and the activity change, negative = inhibition was inactive: -0.0011%. N/C(=N\NC(=O)c1ccc(Cl)cc1)c1cnccn1 was tested, and the activity change, negative = inhibition was inactive: 0.535%. For CCc1ccc(S(=O)(=O)Nc2nnc(N)s2)cc1, the activity change, negative = inhibition was inactive: 1%. With Cn1c(=O)[nH]c(=O)c2c1nc(NCCCO)n2Cc1ccc(F)cc1 the activity change, negative = inhibition was inactive: -0.00734%. In the case of CC(C)(C)n1nc2c(c1NC(=O)c1ccc(Br)o1)CS(=O)C2 (stereo not given), the activity change, negative = inhibition is reported as inactive: 0.895%. With CS(=O)(=O)c1ccccc1-c1csc(N2CCC(C(N)=O)CC2)n1 the activity change, negative = inhibition was inactive: -0.0635%. In the case of CC(C)N(Cc1ccccc1)C(=O)COC(=O)c1ccc2c(c1)OCCO2, the activity change, negative = inhibition is reported as inactive: -0.449%. With CCc1ccc2oc(=O)cc(CN3CCOCC3)c2c1 the activity change, negative = inhibition was inactive: 1.21%. With COc1ccc(NC(=S)N2CCC(C(=O)N3CCCCCC3)CC2)cc1 the activity change, negative = inhibition was inactive: 0.339%. With COc1cccc(/C=C/C(=O)OCC(=O)Nc2cccc(S(=O)(=O)N(C)C)c2)c1 the activity change, negative = inhibition was inactive: -0.586%. In the case of COc1ccc(S(=O)(=O)Nc2ccc3c(c2)C(=O)N([C@H](C)CO)C[C@H](C)[C@H](CN(C)Cc2ccc(C(=O)O)cc2)O3)cc1, the activity change, negative = inhibition is reported as inactive: 0.353%. CCOCCCNC(=O)c1c[nH]c2ccc(C)cc2c1=O was tested, and the activity change, negative = inhibition was inactive: -0.244%. C=CCc1c(C)nc(SC(C)C)[nH]c1=O was tested, and the activity change, negative = inhibition was inactive: 0.0726%. O=C(N/N=C/c1ccc([N+](=O)[O-])o1)c1cn(-c2ccccc2)nc1-c1ccc(F)cc1 was tested, and the activity change, negative = inhibition was inactive: -0.311%. O=C(c1ccsc1)N1CCN(C(=O)c2cccs2)CC1 was tested, and the activity change, negative = inhibition was inactive: 0.464%. COc1ccc(NC(=O)NCCCCc2ccccc2)c(OC)c1 was tested, and the activity change, negative = inhibition was inactive: -0.195%. With CCCC(=O)Nc1ccc(C(=O)NCC2CCCO2)cc1 (stereo not given) the activity change, negative = inhibition was inactive: -0.0895%. With Cc1ccc(S(=O)(=O)N2CCOC2CNC(=O)C(=O)NCCc2ccc(S(N)(=O)=O)cc2)cc1 (stereo not given) the activity change, negative = inhibition was inactive: -0.0611%. With CCOC(=O)C1=C(c2ccccc2)NC(=O)NC1c1ccc(O)c(OCC)c1 (stereo not given) the activity change, negative = inhibition was inactive: 0.587%. CCC(C)(C)n1nnnc1CN1CCc2ccccc21 was tested, and the activity change, negative = inhibition was inactive: 0.458%. Oc1ccccc1N1CCN(C(=S)NCc2ccccc2)CC1 was tested, and the activity change, negative = inhibition was inactive: 1.17%. Cc1ccc(NC(=O)/C=C/c2cccs2)c([N+](=O)[O-])c1 was tested, and the activity change, negative = inhibition was inactive: -0.116%. With CC(Sc1nc2c(cc1C#N)CCCCC2)C(=O)O (stereo not given) the activity change, negative = inhibition was inactive: 1.13%. With O=C1CCCC2=C1C(c1ccc(OS(=O)(=O)c3ccc(Cl)cc3)cc1)C1=C(CCCC1=O)O2 the activity change, negative = inhibition was inactive: 0.631%. With O=[N+]([O-])c1ccc(O)c(-c2nn[nH]n2)c1 the activity change, negative = inhibition was inactive: 0.227%. CSc1ccc(-c2nc(CSCC(=O)N3CCOCC3)c(C)o2)cc1 was tested, and the activity change, negative = inhibition was inactive: 0.0526%. N/C(=N\OC(=O)COc1cc(Cl)c(Cl)cc1Cl)c1ccncc1 was tested, and the activity change, negative = inhibition was inactive: 0.342%. With Cc1ccc(/C(N)=N/OC(=O)N2c3ccccc3Sc3ccccc32)cc1 the activity change, negative = inhibition was inactive: -0.429%. In the case of CCOC(=O)C1CCN(C(=O)CN(c2ccc(OC)c(OC)c2)S(=O)(=O)c2ccccc2)CC1, the activity change, negative = inhibition is reported as inactive: -0.51%. O=C(OCC(=O)N1CCCC1)c1ccc(S(=O)(=O)Nc2ccccc2)cc1 was tested, and the activity change, negative = inhibition was inactive: -0.162%. C#CCOCCOCCOCCNc1nc(N2CCN(C(=O)[C@H](CCCN=C(N)N)n3cc(C(N)[C@H](C)CC)nn3)CC2)nc(N2CCN(C(=O)[C@H](CC(N)=O)n3cc(C(N)[C@@H](C)CC)nn3)CC2)n1 (stereo not given in full) was tested, and the activity change, negative = inhibition was inactive: -0.237%. Cc1ccc(S(=O)(=O)Nc2ccc3c(c2)CC(=O)N([C@H](C)CO)C[C@@H](C)[C@H](CN(C)S(=O)(=O)c2ccccc2)O3)cc1 was tested, and the activity change, negative = inhibition was inactive: 1.04%. CCCCCNc1nc(-c2ccccc2)nc(-n2ccnc2)n1 was tested, and the activity change, negative = inhibition was inactive: -0.269%. For O=C(O)COc1ccc(NC(=O)C(c2ccccc2)c2ccccc2)cc1, the activity change, negative = inhibition was inactive: 0.356%. O=C(c1oc(=O)c2ccccc2c1-c1ccccc1)N1CCOCC1 was tested, and the activity change, negative = inhibition was inactive: 0.035%. For NS(=O)(=O)c1ccc(CCNC(=O)CSc2ccccc2)cc1, the activity change, negative = inhibition was inactive: 0.651%. COc1cc(/C=N/N2C(=O)C3C4c5ccccc5C(c5ccccc54)C3C2=O)ccc1O (stereo not given) was tested, and the activity change, negative = inhibition was inactive: 0.23%. For COc1ccc(-c2cc(C(F)(F)F)nc(SCCC(=O)NCc3ccco3)n2)cc1, the activity change, negative = inhibition was inactive: -2.16%. With CCCN(CC(=O)Nc1ccccc1C)C(=O)CCl the activity change, negative = inhibition was inactive: 0.105%. With O=C(O)c1ccc2cc(-c3ccccc3)[nH]c2c1 the activity change, negative = inhibition was inactive: -0.104%. CC1CCN(S(=O)(=O)c2ccc3[nH]c(=O)[nH]c3c2)CC1 was tested, and the activity change, negative = inhibition was inactive: -0.601%. CC1=NN(C(N)=S)C(=O)C1N=Nc1c(C)cc(C)cc1C (stereo not given) was tested, and the activity change, negative = inhibition was inactive: 0.141%. In the case of CN1CCN(c2nc3ccccn3c(=O)c2/C=C(\C#N)S(=O)(=O)c2ccc(Cl)cc2)CC1, the activity change, negative = inhibition is reported as inactive: 1.17%. Cc1ccc2nc(-c3cccc(NS(C)(=O)=O)c3)cc(-c3ccccc3)c2c1 was tested, and the activity change, negative = inhibition was inactive: 0.133%. With C=CCNC(=S)Nc1ccc(N2CCOCC2)c(S(=O)(=O)Nc2ccccc2Cl)c1 the activity change, negative = inhibition was inactive: 0.0985%.
